Laboratory results taken from the supplement of paper PMC12823440, “Inhibitors supercharge kinase turnover through native proteolytic circuits” (Nature, 2025).
This is one part of the list. The calls rarely recur for the same compound in another form.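 Kinases, fused to nanoluciferase, were expressed in K562 cells; luminescence was measured every 4 h from 2 to 18 h as percent of control (DMSO = 100%, positive control = 0%). A time point is decreased if signal falls significantly (2 sigma). Hits were called by the authors by a rule that is not shown; the count of time points alone does not decide it.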

biological target: EGFR_G719S (UniProt P00533); assay: kinase-Nluc reporter destabilization hit call (1 = scored as downregulated) (binary); higher = compound decreases kinase abundance; conditions: K562; 2-18 h

kinase-Nluc reporter destabilization hit call, inactive:
CC(C)Cn1ncc2cc(Oc3ccc(F)cc3F)c(C(=O)NCCN(C)C)cc21 [p38α inhibitor 1] (10 µM) 0
CNc1cc2c(Nc3cccc(Br)c3)ncnc2cn1 (10 µM) 0
CN1C(=O)[C@@H](NC(=O)c2cc(Cc3ccccc3)on2)COc2ccccc21 (10 µM) 0
CC(C1CC1)n1cnc2c(NCc3cccc(C(F)(F)F)c3)nc(NCCN(C)C)nc21 (stereo not drawn) (10 µM) 0
Cc1n[nH]c2ncc(C(=O)N3CCC[C@H]3c3ccc(Cl)cc3)cc12 (10 µM) 0
COc1ccc(Br)c(C=O)c1O [6-Bromo-2-hydroxy-3-methoxybenzaldehyde] (10 µM) 0
Oc1ccc(-c2cnc3ccc(NCc4ccco4)nn23)cc1 [IRAK inhibitor 2] (2.5 µM) 0
C[C@H](Nc1cc2c(-c3ccc4c(c3)OCO4)noc2cn1)c1ccccc1 (10 µM) 0
Nc1ccc(C(=O)Nc2cccc(-c3nc(N4CCOCC4)c4oc5ncccc5c4n3)c2)cn1 (10 µM) 0
CCOC(=O)c1c(N2CCc3ccc(OC)cc3C2)oc(C=C2C=Nc3ncccc32)c1O (10 µM) 0
Cc1ncc(-c2cc(F)c(O)c(F)c2)cc1-c1cc(F)c(O)c(F)c1 (10 µM) 0
N=C(NC(=N)N1CCCC1)Nc1ccc(OC(F)(F)F)cc1 (10 µM) 0
CC1(C)CN(C(=O)c2ccc(-c3cccc4nc(NC(=O)C5CC5)nn34)cc2)C1 [Solcitinib] (10 µM) 0
